The supplement of paper PMC10849652
The list shows a part of the results.

The chains behind the UniProt entries cited, without tags or fusion partners. Where a name states a change or a piece, a line headed by the entry shows the natural chain unless it says otherwise.
UniProt Q5VW32: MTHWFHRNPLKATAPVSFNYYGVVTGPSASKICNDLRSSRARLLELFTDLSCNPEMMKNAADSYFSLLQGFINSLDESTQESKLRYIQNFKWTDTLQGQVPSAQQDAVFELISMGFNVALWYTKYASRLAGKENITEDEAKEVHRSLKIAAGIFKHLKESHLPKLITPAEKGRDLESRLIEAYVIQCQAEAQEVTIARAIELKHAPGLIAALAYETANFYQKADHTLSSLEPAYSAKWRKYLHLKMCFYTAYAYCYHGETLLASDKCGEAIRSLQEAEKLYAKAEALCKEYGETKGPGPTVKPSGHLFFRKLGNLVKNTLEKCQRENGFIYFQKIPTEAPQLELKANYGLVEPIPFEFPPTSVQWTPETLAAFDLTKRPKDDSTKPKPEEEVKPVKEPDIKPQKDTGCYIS
UniProt Q8TDN6: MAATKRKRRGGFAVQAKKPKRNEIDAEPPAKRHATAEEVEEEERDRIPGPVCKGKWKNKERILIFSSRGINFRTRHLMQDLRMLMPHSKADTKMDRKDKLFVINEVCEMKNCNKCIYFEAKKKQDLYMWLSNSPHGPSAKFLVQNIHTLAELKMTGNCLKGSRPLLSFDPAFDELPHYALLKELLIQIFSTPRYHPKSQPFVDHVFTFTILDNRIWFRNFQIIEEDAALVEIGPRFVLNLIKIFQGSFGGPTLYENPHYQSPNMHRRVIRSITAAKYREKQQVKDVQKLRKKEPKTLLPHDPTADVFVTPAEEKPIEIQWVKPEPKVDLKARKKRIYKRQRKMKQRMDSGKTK
UniProt P61769, whole entry, looked up: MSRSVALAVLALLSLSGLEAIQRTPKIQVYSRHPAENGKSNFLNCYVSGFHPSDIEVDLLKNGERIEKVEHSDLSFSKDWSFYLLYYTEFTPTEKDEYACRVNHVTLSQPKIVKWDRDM
UniProt Q9H0E9, whole entry, looked up: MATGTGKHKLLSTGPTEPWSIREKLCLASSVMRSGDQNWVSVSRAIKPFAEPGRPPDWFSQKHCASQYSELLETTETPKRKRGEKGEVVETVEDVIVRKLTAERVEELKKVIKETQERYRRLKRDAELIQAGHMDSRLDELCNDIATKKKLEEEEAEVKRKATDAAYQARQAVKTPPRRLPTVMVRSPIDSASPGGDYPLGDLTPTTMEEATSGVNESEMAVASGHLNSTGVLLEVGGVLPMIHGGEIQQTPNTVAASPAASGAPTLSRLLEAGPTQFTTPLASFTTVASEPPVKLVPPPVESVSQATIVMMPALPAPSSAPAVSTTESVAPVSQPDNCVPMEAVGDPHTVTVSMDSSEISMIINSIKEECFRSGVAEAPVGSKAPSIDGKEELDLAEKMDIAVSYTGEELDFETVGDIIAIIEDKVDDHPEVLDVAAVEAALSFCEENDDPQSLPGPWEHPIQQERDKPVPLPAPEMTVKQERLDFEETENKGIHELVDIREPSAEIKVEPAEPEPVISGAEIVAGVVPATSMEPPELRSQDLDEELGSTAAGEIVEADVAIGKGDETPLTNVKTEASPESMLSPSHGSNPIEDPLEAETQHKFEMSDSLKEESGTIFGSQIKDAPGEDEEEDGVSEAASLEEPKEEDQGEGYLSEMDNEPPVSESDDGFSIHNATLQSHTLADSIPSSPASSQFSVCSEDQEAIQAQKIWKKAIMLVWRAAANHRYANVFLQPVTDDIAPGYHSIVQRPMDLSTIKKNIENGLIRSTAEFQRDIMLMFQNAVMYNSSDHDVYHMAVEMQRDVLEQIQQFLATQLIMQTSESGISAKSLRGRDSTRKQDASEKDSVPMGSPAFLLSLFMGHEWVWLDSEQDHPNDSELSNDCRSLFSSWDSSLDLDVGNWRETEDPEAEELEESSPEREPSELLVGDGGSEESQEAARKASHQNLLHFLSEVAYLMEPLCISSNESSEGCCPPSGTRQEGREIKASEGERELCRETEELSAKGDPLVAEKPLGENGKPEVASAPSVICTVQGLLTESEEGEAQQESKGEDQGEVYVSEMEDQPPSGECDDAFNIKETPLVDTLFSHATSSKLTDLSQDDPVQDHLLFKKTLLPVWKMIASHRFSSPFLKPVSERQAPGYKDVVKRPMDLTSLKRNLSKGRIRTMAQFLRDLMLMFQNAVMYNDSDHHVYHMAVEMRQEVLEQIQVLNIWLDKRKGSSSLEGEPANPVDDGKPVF
UniProt Q14137: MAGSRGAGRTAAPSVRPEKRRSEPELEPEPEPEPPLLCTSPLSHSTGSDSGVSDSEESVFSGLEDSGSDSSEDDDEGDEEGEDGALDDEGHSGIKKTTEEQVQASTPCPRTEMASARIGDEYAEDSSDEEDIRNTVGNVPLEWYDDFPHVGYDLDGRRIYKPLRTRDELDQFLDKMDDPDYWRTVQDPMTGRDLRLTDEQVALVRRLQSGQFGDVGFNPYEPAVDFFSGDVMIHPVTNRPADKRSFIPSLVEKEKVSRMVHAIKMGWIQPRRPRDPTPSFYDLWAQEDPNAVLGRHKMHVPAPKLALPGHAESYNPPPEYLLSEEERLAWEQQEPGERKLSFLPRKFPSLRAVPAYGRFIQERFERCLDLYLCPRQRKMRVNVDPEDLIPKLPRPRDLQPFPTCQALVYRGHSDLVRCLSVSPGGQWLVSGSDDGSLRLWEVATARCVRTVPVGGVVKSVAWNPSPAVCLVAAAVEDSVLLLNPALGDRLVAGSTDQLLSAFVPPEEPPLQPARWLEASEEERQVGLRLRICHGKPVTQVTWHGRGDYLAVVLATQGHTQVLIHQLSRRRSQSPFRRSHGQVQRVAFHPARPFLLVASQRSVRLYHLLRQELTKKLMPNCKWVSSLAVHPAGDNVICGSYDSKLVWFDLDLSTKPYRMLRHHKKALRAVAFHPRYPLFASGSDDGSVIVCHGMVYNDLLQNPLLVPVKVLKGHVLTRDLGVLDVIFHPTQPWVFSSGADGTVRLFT
UniProt Q9H3K6: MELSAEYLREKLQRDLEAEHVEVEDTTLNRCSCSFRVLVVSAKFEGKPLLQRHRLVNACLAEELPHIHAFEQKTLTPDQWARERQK
UniProt Q96GS4: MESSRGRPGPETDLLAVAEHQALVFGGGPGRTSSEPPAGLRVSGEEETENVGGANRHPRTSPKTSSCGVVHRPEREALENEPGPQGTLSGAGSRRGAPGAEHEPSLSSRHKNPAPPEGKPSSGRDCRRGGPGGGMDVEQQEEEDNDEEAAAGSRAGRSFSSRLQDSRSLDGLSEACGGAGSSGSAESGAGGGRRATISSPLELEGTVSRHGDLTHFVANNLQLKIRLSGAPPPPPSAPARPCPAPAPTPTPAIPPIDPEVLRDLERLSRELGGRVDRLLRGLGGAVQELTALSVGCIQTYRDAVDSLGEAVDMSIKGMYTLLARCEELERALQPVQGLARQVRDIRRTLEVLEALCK
UniProt Q9UL45: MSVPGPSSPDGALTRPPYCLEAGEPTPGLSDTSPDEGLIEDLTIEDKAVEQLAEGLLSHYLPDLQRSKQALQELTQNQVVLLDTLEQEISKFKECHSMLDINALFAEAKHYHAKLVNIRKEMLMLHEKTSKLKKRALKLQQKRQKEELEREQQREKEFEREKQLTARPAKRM
UniProt O60512: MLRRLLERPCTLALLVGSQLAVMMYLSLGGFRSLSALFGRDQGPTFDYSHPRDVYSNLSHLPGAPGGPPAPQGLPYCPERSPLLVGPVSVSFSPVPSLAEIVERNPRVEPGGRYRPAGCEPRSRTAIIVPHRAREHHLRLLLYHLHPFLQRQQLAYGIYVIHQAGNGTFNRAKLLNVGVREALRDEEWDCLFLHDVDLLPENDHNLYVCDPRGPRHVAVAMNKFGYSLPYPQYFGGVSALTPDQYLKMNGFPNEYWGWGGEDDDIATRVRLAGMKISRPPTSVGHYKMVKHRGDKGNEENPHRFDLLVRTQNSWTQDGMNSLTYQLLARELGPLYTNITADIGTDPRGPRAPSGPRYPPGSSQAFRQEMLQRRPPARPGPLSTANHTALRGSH
UniProt Q6QNY0: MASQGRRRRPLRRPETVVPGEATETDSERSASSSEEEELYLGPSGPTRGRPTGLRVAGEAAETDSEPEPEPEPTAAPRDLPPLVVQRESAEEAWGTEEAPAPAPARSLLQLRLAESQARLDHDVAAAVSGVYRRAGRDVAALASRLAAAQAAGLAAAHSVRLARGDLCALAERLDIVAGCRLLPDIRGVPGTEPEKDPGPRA
UniProt O95999: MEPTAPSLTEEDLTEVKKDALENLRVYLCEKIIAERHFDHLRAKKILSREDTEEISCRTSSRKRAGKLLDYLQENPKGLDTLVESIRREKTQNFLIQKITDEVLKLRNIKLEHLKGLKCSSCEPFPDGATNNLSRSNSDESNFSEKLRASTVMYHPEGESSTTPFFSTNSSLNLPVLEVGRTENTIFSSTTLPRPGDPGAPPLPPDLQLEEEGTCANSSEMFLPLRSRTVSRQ
UniProt O95861: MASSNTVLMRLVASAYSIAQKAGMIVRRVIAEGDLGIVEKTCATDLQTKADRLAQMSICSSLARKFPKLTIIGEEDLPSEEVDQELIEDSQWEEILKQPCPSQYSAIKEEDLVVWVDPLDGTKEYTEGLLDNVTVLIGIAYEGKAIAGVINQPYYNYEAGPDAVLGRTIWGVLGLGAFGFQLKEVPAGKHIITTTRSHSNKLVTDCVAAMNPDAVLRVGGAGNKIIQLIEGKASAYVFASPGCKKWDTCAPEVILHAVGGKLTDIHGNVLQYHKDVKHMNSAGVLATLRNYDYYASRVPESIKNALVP
UniProt Q92560: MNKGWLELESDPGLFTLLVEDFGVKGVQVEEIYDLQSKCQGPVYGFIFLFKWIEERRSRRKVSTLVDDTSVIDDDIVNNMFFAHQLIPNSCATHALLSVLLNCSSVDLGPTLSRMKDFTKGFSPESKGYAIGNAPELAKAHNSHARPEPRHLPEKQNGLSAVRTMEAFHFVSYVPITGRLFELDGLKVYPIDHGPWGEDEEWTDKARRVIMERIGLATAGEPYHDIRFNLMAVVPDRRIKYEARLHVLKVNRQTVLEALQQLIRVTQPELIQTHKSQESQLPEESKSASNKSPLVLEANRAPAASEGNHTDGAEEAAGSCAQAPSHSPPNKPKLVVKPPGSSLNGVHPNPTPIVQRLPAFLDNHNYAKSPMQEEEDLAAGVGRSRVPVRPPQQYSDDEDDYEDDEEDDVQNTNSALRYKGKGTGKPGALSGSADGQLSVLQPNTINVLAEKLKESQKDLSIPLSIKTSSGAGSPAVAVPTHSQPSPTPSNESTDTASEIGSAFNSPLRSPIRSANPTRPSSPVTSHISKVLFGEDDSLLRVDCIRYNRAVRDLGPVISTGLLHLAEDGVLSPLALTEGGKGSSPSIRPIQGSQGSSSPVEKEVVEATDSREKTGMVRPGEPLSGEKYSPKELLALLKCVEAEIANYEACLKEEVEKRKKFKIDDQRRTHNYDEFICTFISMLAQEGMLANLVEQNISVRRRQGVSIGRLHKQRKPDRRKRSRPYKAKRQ
UniProt Q13867: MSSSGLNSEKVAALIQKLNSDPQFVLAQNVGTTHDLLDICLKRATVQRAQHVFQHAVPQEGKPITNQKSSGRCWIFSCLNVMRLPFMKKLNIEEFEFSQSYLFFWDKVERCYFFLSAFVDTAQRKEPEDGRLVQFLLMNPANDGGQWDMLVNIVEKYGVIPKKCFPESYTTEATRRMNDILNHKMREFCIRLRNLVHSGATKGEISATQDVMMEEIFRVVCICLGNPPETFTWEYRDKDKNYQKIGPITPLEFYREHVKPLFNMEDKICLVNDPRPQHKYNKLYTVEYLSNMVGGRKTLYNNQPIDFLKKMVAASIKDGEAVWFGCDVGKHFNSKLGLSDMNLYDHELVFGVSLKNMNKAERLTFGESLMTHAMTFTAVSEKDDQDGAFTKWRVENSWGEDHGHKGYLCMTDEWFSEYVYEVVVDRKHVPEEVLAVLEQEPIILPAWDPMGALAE
UniProt O14965: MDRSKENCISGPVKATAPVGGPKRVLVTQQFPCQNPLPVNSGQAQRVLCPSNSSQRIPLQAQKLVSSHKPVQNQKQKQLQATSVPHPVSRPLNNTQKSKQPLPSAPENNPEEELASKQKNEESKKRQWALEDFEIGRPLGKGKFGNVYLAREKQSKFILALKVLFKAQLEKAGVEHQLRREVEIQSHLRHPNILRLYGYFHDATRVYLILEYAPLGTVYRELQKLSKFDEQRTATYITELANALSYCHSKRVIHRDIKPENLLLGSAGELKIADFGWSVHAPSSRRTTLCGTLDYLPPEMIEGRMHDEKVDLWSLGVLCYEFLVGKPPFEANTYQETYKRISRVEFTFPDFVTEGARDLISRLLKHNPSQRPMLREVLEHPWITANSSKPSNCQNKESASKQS
UniProt O15155: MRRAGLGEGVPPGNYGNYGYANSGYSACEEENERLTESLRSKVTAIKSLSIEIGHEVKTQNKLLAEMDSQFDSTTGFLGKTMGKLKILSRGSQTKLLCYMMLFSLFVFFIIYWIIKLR
UniProt Q9NUP1: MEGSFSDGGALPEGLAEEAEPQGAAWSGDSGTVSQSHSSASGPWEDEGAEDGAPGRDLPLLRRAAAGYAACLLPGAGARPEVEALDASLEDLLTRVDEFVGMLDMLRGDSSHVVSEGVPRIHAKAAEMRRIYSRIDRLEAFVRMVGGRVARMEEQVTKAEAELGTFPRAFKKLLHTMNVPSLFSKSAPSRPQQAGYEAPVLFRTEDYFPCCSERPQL

Assays:
Test in all cases: log2 fold change, soluble protein after heating vs DMSO (PISA); higher = thermal stabilisation; K562 cells, 10 uM, 30 min; active = over 0.2 and 3.5 SD of the protein, either way, in both replicates (recomputed)
erlotinib = compound: C#Cc1cccc(Nc2ncnc3cc(OCCOC)c(OCCOC)cc23)c1 [erlotinib]
In short: (§1)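 K562 cells at 2×10^6 cells/mL were exposed to 10 μM compound for 30 min, then aliquots were heated for 3 min across 48°C-58°C, pooled, and extracted in PBS containing 0.5% NP-40 at 4°C. The supernatant after 21,000xg for 90 min was taken as soluble protein and measured by TMTpro 16plex LC-MS/MS with channel sums equalised. Thermal stability is reported relative to control samples, with values from duplicates. Fold changes are given on a log2 scale.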

[1] = compound: C/C(=N\NC(=O)C1=CC(=CC=C1)S(=O)(=O)N2CCOCC2)/C3=C(C=CC(=C3)Cl)O
In short: as §1

[2] = compound: C1=CC(=C(C=C1Cl)C2=NC3=NC=CN=C3C(=N2)NC4=CC=NC=C4)F
In short: as §1

[3] = compound: C1=CC(=CC=C1C2=NC3=C(N2)C=C(C=C3)C(=O)N)OC4=CC=C(C=C4)Cl
In short: as §1

[4] = compound: C1=CC2=C(C=CC(=C2)/C=C\3/C(=O)NC(=NCC4=CC=CS4)S3)N=C1
In short: as §1

[5] = compound: C1=CC2=NC=CN=C2C=C1/C=C/3\C(=O)NC(=O)S3
In short: as §1

[6] = compound: C1=CC=C(C=C1)C2=NC(=C(N2)C3=CC=NC=C3)C4=CC(=C(C=C4)Cl)O
In short: as §1

[7] = compound: C1=CC=C2C(=C1)C3=NNC4=CC=CC(=C43)C2=O
In short: as §1

[8] = compound: C1CCN(C1)C(=O)NC2=CC=CC(=C2)NC3=NC=C(C(=N3)NCCC4=CN=CN4)Br
In short: as §1

[9] = compound: C1CN(CCC1(CC2=CC=C(C=C2)Cl)N)C3=NC=NC4=C3C=CN4
In short: as §1

Target | log2 fold change (erlotinib) | log2 fold change [1] | log2 fold change [2] | log2 fold change [3] | log2 fold change [4] | log2 fold change [5] | log2 fold change [6] | log2 fold change [7] | log2 fold change [8] | log2 fold change [9]
BROX (UniProt Q5VW32) | inactive: -0.002 | inactive: 0.082 | inactive: 0.213 | inactive: -0.047 | inactive: -0.037 | inactive: 0.021 | inactive: 0.007 | inactive: 0.014 | inactive: -0.007 | inactive: -0.012
BRIX1 (UniProt Q8TDN6) | inactive: -0.093 | inactive: -0.05 | inactive: -0.415 | inactive: -0.089 | inactive: 0.003 | inactive: 0.046 | inactive: -0.046 | inactive: -0.167 | inactive: 0.017 | inactive: -0.387
BCAT2 (UniProt O15382) | inactive: 0.03 | inactive: -0.02 | inactive: 0.056 | inactive: 0.021 | inactive: -0.033 | inactive: 0.04 | inactive: -0.038 | inactive: 0.03 | inactive: 0.017 | inactive: 0
ATXN7L3B (UniProt Q96GX2) | inactive: -0.003 | inactive: -0.015 | inactive: 0.061 | inactive: -0.033 | inactive: 0.103 | inactive: 0.072 | inactive: -0.002 | inactive: 0.021 | inactive: -0.001 | inactive: -0.011
B2M (UniProt P61769) | inactive: -0.049 | inactive: 0.03 | inactive: -0.008 | inactive: -0.073 | inactive: 0.065 | inactive: 0.001 | inactive: 0.029 | inactive: -0.048 | inactive: -0.099 | inactive: -0.02
B4GALT7 (UniProt Q9UBV7) | inactive: 0.111 | inactive: -0.007 | inactive: 0.021 | inactive: -0.02 | inactive: 0.157 | inactive: -0.079 | inactive: 0.039 | inactive: -0.018 | inactive: 0.002 | inactive: 0.025
BRD8 (UniProt Q9H0E9) | inactive: -0.057 | inactive: -0.036 | inactive: -0.067 | inactive: 0.068 | inactive: -0.005 | inactive: 0.037 | inactive: -0.074 | inactive: -0.064 | inactive: 0.016 | inactive: -0.058
BOP1 (UniProt Q14137) | inactive: -0.003 | inactive: 0.038 | inactive: -0.144 | inactive: 0 | inactive: -0.053 | inactive: 0.041 | inactive: -0.153 | inactive: -0.014 | inactive: 0.043 | inactive: 0.036
BOLA2 (UniProt Q9H3K6) | inactive: -0.015 | inactive: 0.127 | inactive: 0.132 | inactive: -0.025 | inactive: 0.041 | inactive: 0.027 | inactive: 0 | inactive: 0.014 | inactive: -0.02 | inactive: -0.008
BICD1 (UniProt Q96G01) | inactive: 0.006 | inactive: 0.064 | inactive: -0.036 | inactive: -0.022 | inactive: 0.144 | inactive: -0.008 | inactive: 0.111 | inactive: 0.04 | inactive: -0.037 | inactive: -0.046
BIRC6 (UniProt Q9NR09) | inactive: -0.058 | inactive: 0.063 | inactive: -0.01 | inactive: 0.004 | inactive: -0.004 | inactive: 0.02 | inactive: -0.002 | inactive: 0.019 | inactive: 0.003 | inactive: -0.059
BORCS6 (UniProt Q96GS4) | inactive: 0.032 | inactive: 0.05 | inactive: 0.068 | inactive: 0.008 | inactive: 0.055 | inactive: 0.021 | inactive: -0.023 | inactive: -0.008 | inactive: -0.024 | inactive: -0.024
BMS1 (UniProt Q14692) | inactive: -0.067 | inactive: -0.048 | inactive: -0.211 | inactive: 0.021 | inactive: -0.004 | inactive: -0.022 | inactive: -0.035 | inactive: 0.029 | inactive: 0.008 | inactive: -0.2
BRD4 (UniProt O60885) | inactive: -0.151 | inactive: 0.078 | inactive: 0.054 | inactive: 0.003 | inactive: 0.025 | inactive: -0.003 | inactive: 0.213 | inactive: -0.002 | inactive: -0.121 | inactive: -0.117
BRD8 isoform 2 (UniProt Q9H0E9) | inactive: 0.157 | inactive: 0.016 | inactive: 0.029 | inactive: 0.082 | inactive: 0.035 | inactive: 0.055 | inactive: -0.152 | inactive: -0.044 | inactive: -0.027 | inactive: 0.021
BLOC1S6 (UniProt Q9UL45) | inactive: -0.005 | inactive: 0.017 | inactive: 0.047 | inactive: 0.099 | inactive: -0.026 | inactive: 0.103 | inactive: -0.03 | inactive: -0.035 | inactive: 0.027 | inactive: 0.009
B4GALT3 (UniProt O60512) | inactive: -0.044 | inactive: 0.172 | inactive: -0.109 | inactive: 0.069 | inactive: -0.161 | inactive: 0.043 | inactive: 0.028 | inactive: -0.066 | inactive: 0.004 | inactive: -0.012
BLOC1S3 (UniProt Q6QNY0) | inactive: 0.027 | inactive: -0.009 | inactive: 0.04 | inactive: -0.003 | inactive: 0.093 | inactive: 0.012 | inactive: 0.031 | inactive: -0.052 | inactive: -0.032 | inactive: 0.052
BCL10 (UniProt O95999) | inactive: 0.1 | inactive: 0.016 | inactive: -0.002 | inactive: -0.002 | inactive: -0.001 | inactive: 0.041 | inactive: 0.001 | inactive: -0.014 | inactive: -0.027 | inactive: -0.139
BPNT1 (UniProt O95861) | inactive: -0.026 | inactive: 0.016 | inactive: 0.045 | inactive: 0.008 | inactive: -0.022 | inactive: -0.008 | inactive: 0.037 | inactive: -0.016 | inactive: -0.019 | inactive: -0.021
BORCS5 (UniProt Q969J3) | inactive: 0.046 | inactive: 0.138 | inactive: 0.014 | inactive: 0.044 | inactive: -0.044 | inactive: 0.034 | inactive: 0.024 | inactive: -0.012 | inactive: 0.015 | inactive: -0.02
BNIP2 (UniProt J3KN59) | inactive: -0.017 | inactive: 0.036 | inactive: 0.04 | inactive: 0.072 | inactive: 0.087 | inactive: 0.016 | inactive: -0.072 | inactive: -0.024 | inactive: -0.004 | inactive: 0.019
BAP1 (UniProt Q92560) | inactive: 0.182 | inactive: -0.013 | inactive: -0.142 | inactive: -0.048 | inactive: -0.128 | inactive: 0.06 | inactive: -0.104 | inactive: -0.05 | inactive: -0.078 | inactive: -0.088
BLMH (UniProt Q13867) | inactive: -0.061 | inactive: -0.052 | inactive: 0.041 | inactive: 0.029 | inactive: -0.021 | inactive: 0.001 | inactive: -0.06 | inactive: -0.011 | inactive: -0.035 | inactive: -0.012
BCAS2 (UniProt O75934) | inactive: -0.124 | inactive: 0.03 | inactive: -0.005 | inactive: 0.062 | inactive: -0.009 | inactive: 0.103 | inactive: 0.053 | inactive: -0.066 | inactive: -0.195 | inactive: -0.071
AURKA (UniProt O14965) | inactive: 0.181 | inactive: 0.018 | inactive: -0.055 | inactive: -0.061 | inactive: -0.08 | inactive: -0.028 | inactive: 0.028 | inactive: 0.462 | active: 0.707 | inactive: -0.313
BET1 (UniProt O15155) | inactive: 0.006 | inactive: -0.042 | inactive: 0.048 | inactive: 0.078 | inactive: 0.115 | inactive: 0.069 | inactive: 0.006 | inactive: -0.072 | inactive: -0.032 | inactive: 0.004
AUP1 (UniProt Q9Y679) | inactive: 0.018 | inactive: 0.055 | inactive: 0.068 | inactive: 0.049 | inactive: 0.006 | inactive: 0.055 | inactive: 0.078 | inactive: 0.004 | inactive: -0.031 | inactive: -0.018
BCLAF1 (UniProt Q9NYF8) | inactive: 0.036 | inactive: 0.075 | inactive: -0.046 | inactive: 0.082 | inactive: -0.304 | inactive: -0.018 | inactive: 0.143 | inactive: -0.063 | inactive: -0.089 | inactive: -0.15
BLOC1S4 (UniProt Q9NUP1) | inactive: 0.014 | inactive: 0.026 | inactive: 0.026 | inactive: 0.013 | inactive: 0.096 | inactive: 0.025 | inactive: 0.034 | inactive: -0.038 | inactive: -0.098 | inactive: 0.01

Shown tab-delimited: part of the list above.
Target	log2 fold change (erlotinib)	log2 fold change [1]	log2 fold change [2]	log2 fold change [3]	log2 fold change [4]	log2 fold change [5]	log2 fold change [6]	log2 fold change [7]	log2 fold change [8]	log2 fold change [9]
BRD8 isoform 2 (UniProt Q9H0E9)	inactive: 0.157	inactive: 0.016	inactive: 0.029	inactive: 0.082	inactive: 0.035	inactive: 0.055	inactive: -0.152	inactive: -0.044	inactive: -0.027	inactive: 0.021
AURKA (UniProt O14965)	inactive: 0.181	inactive: 0.018	inactive: -0.055	inactive: -0.061	inactive: -0.08	inactive: -0.028	inactive: 0.028	inactive: 0.462	active: 0.707	inactive: -0.313
